Reference: the RepoRT retention time repository (doi:10.1093/pcp/pcn183)

Assay: RP, Waters ACQUITY UPLC BEH C18, 38 °C, 0.24 mL/min; A: water + 0.1% formic acid, pH 3; B: acetonitrile + 0.1% formic acid, pH 3; gradient (min/%B) 0/0 0.25/0 0.4/9 0.8/17 1.9/100 2.1/100 2.11/0 3/0
Details: stereoisomer not certain

Structure (SMILES): O=C(O)C1=CC(O)C(O)C(O)C1 (single isomer, unassigned; (-)) [(-)Shikimic acid]
- LC retention time: 0.25 min
